Results are given in words; binding and its absence hold for the method and conditions named.
Experiments:
[1] = target: Pfs230D1 (Plasmodium falciparum 3D7) (UniProt P68874); experiment: SEC-SAXS; SIBYLS beamline 12.3.1; Shodex KW-804 column for Pfs230D1-ferritin, Shodex KW-802.5 column for Pfs230D1; molecular weight from SAXS (ATSAS); both purified
[2] = target: Pfs230D1 (Plasmodium falciparum 3D7) (UniProt P68874); experiment: SEC; Superdex 75 Increase 10/300 GL column, PBS; both purified

Chains of the proteins cited; added tags and fusions are not shown. Residues count along the entry.
UniProt P68874, residues 542-736: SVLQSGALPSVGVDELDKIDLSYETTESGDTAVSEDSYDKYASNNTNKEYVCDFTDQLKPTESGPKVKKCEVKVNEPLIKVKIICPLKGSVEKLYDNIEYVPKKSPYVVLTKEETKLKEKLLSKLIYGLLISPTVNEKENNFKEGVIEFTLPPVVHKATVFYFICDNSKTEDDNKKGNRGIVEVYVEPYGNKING

“Pfs230D1 (from UniProt P68874 542-736) (domain or fragment)” was tested, and the binding [1] was “no binding” and the binding [2] was “no binding”.

Reference: paper PMC11125772, “A Self-Assembling Pfs230D1-Ferritin Nanoparticle Vaccine Has Potent and Durable Malaria Transmission-Reducing Activity” (Vaccines, 2024)
